The other results are listed elsewhere or left out.
The sequences below were run against T1, OsSMF1 (Oryza sativa, UniProt Q6ZLB0 1-436) (assay: protein-binding microarray (RPBM); PBS, 2% BSA, 51.3 ng/ul salmon testes DNA, 50 uM zinc acetate, 200 nM TF, 25 C, 1 h; high values mean tight binding). Settings: protein: recombinant; tags: N-terminal polyhistidine and DsRed monomer fusion (pET32a); chain copies: 2; label: CyDye5-dUTP incorporated in the synthesized complementary strand; 3' TTTTT single-stranded linker to array surface; dsDNA, one strand shown.
T1 sequence: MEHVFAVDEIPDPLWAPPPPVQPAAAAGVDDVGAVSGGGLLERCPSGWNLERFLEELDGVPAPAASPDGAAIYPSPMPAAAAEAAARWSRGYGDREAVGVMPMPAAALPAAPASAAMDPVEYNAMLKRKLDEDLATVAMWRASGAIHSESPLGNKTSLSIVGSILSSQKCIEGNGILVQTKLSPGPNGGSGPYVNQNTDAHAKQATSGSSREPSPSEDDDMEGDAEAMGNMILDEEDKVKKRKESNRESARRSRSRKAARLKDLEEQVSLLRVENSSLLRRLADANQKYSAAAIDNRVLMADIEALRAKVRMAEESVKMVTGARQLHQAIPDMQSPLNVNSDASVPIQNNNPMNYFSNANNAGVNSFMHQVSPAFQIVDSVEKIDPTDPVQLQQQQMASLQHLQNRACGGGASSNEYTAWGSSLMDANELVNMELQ
How it was run: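 Binding signal here means per-feature fluorescence intensity in arbitrary units. The values were read on an Axon 4000B scanner after a custom Agilent array, double-stranded by primer extension with Cy5-dUTP, was incubated with 200 nM protein at 25 °C for 1 h in PBS with 2% BSA, salmon testes DNA and 50 µM zinc acetate, then washed. The proteins were transcription factors with an N-terminal polyhistidine tag and DsRed, expressed in E. coli BL21-CodonPlus and purified on Ni–NTA.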
For “TCGCCGCCCAGATCCAGCAGCTCAAGAACACCGCCGGCGACGGAGTCACCTAGTGCAG”, the binding signal was 3350 fluorescence intensity (a.u.). For “TAAATTTAGTTAATATGACATGTAAGCGCACTGTAATTTTCGGAGTCACCTAGTGCAG”, the binding signal was 4280 fluorescence intensity (a.u.). For “CTTCCCATTTCAATTTTCCTTTTCCCCTCATAAAATCACTCGGAGTCACCTAGTGCAG”, the binding signal was 3360 fluorescence intensity (a.u.). In the case of “CAAGCACACCAGACACCACACCGAGCCCGCCACGTCCACCCGGAGTCACCTAGTGCAG”, the binding signal is reported as 9430 fluorescence intensity (a.u.). With “TATATAGTTTTGGTAAAGAACATATTGATGACTCCTATTTCGGAGTCACCTAGTGCAG” the binding signal was 3580 fluorescence intensity (a.u.). “AGTTGATCGGTTGATGCGCTGTCTTTGTTGTTTTGTGGAACGGAGTCACCTAGTGCAG” was tested, and the binding signal was 3810 fluorescence intensity (a.u.). “GGCGGCGGCATCTCCTGGCGGCTCCCGTCCATGGCCGCTGCGGAGTCACCTAGTGCAG” was tested, and the binding signal was 6760 fluorescence intensity (a.u.). In the case of “CCTCCATCGATCGATCGTCTGCGATCCTTGTCACGGCTTGCGGAGTCACCTAGTGCAG”, the binding signal is reported as 3470 fluorescence intensity (a.u.). With “AACTGCACTGTGCGTGTACACCATCTTAGCTGGAACGTGCCGGAGTCACCTAGTGCAG” the binding signal was 3400 fluorescence intensity (a.u.). In the case of “ACTCATATTGCAAATGTCATGTTTATTGTCTTAATATTTTCGGAGTCACCTAGTGCAG”, the binding signal is reported as 3950 fluorescence intensity (a.u.). “ATTCATTGTTAAATATATTTTCATGTAGGCATATAATTTTCGGAGTCACCTAGTGCAG” was tested, and the binding signal was 17100 fluorescence intensity (a.u.). For “CGGTCGGTCCATCGCCCTCCGTCCCCATCCCCACCGTCACCGGAGTCACCTAGTGCAG”, the binding signal was 41900 fluorescence intensity (a.u.). With “CTTGTTGTGTTGTGCACTTGTGCTGCATCTGTGCAGTGTGCGGAGTCACCTAGTGCAG” the binding signal was 3590 fluorescence intensity (a.u.). For “CGCCGACCCACTCACCCACACAACGCGTGCGGTCGCCGGACGGAGTCACCTAGTGCAG”, the binding signal was 5590 fluorescence intensity (a.u.). For “CGAATTTCTAAGCTCTCACAACCTACTCGTTAGAGTTAACCGGAGTCACCTAGTGCAG”, the binding signal was 3660 fluorescence intensity (a.u.). For “ACCGTCCCGCTAATCTTTTCCCAAACCCATTCGATTTGGGCGGAGTCACCTAGTGCAG”, the binding signal was 3430 fluorescence intensity (a.u.). For “ACGTGAGCGCTCCCGGTCATTAGGAGCCACGTCAGCTGGCCGGAGTCACCTAGTGCAG”, the binding signal was 24400 fluorescence intensity (a.u.). With “ATTTAGTGCTAAATATGTAGTTTCATGATACATCATGTTACGGAGTCACCTAGTGCAG” the binding signal was 3850 fluorescence intensity (a.u.). “TATGGTATTGTCACACATGGCAGGTACAAACCACTGAGCTCGGAGTCACCTAGTGCAG” was tested, and the binding signal was 3720 fluorescence intensity (a.u.). In the case of “AGACTGAAAGAGAGAGGAAGGAAGAGAGATGACGTGGCATCGGAGTCACCTAGTGCAG”, the binding signal is reported as 35800 fluorescence intensity (a.u.). For “CATCCACACTGGCGACTCCGTCGTGGCGAGTGTGGCGGTGCGGAGTCACCTAGTGCAG”, the binding signal was 4920 fluorescence intensity (a.u.). “CTGCCACAAACCACGGAGACAACACACGCAGCTCGCCGACCGGAGTCACCTAGTGCAG” was tested, and the binding signal was 3400 fluorescence intensity (a.u.). With “GCCATGGTGACGATGGCGAGGTAGAGGGAGGTGACGTAGCCGGAGTCACCTAGTGCAG” the binding signal was 5870 fluorescence intensity (a.u.). With “CACCATTTTGGGCCGACACATCAAGCAGGCCAACGCGCAGCGGAGTCACCTAGTGCAG” the binding signal was 3300 fluorescence intensity (a.u.). In the case of “AAGTTTGCAGCATTTCGCAAGCTAGCCACGACTTCGGAGACGGAGTCACCTAGTGCAG”, the binding signal is reported as 31000 fluorescence intensity (a.u.). For “AAGCGACGACTTCCTCCCCTCCCACACGCATCCCGTCATCCGGAGTCACCTAGTGCAG”, the binding signal was 3510 fluorescence intensity (a.u.). With “TGCTGCAAAAGAAATTGGGTTTTGTTTATCCTCTATCATTCGGAGTCACCTAGTGCAG” the binding signal was 4230 fluorescence intensity (a.u.). In the case of “CCAAAGTGCTTAGAATAAACCCTAACCTGGCCCTTATCATCGGAGTCACCTAGTGCAG”, the binding signal is reported as 24300 fluorescence intensity (a.u.). For “AGCCCCAGCTTCGCGGCCCCGCTTGACCAGTAGATACACGCGGAGTCACCTAGTGCAG”, the binding signal was 3560 fluorescence intensity (a.u.). For “CTCGCCGTGGGTGTTTAGCAGCAGGGACGTGGCCGTCGCCCGGAGTCACCTAGTGCAG”, the binding signal was 5100 fluorescence intensity (a.u.). “ATCTAACTCATCCATTTGCTGGTGAGACTTGACATCCCAACGGAGTCACCTAGTGCAG” was tested, and the binding signal was 3430 fluorescence intensity (a.u.). With “AATCGAAAGGGACATCATACTCGCCACGCCGGATCTCGCCCGGAGTCACCTAGTGCAG” the binding signal was 4420 fluorescence intensity (a.u.). “GGCGCACCCGCGGCGCGTTCATCGCCGCCGTGTTCTCCATCGGAGTCACCTAGTGCAG” was tested, and the binding signal was 3750 fluorescence intensity (a.u.). With “GTTCGTTAGACTGACATGTGGGGCCAGGATATGCTCGGATCGGAGTCACCTAGTGCAG” the binding signal was 4150 fluorescence intensity (a.u.). In the case of “CGTCTTGGTACAGTGCGTACACGTCTCGATCTATATTAGTCGGAGTCACCTAGTGCAG”, the binding signal is reported as 7250 fluorescence intensity (a.u.). “AGCGCCAGTCCCGTTGGCGCTGACACGGCCAACCTCAGCGCGGAGTCACCTAGTGCAG” was tested, and the binding signal was 5990 fluorescence intensity (a.u.). “AGCAAAGGCAGCAGCCAGCAGTTTCAGAGTTCAGGGATGCCGGAGTCACCTAGTGCAG” was tested, and the binding signal was 35200 fluorescence intensity (a.u.). With “CCCACGCCGCCGCCGCCGCCACGTCCGCCTTTTCCCCGCTCGGAGTCACCTAGTGCAG” the binding signal was 10900 fluorescence intensity (a.u.). For “ATCGCGCATCCACTCCACACCACACGCTTCACTGGTTCCGCGGAGTCACCTAGTGCAG”, the binding signal was 3870 fluorescence intensity (a.u.). For “AAAGCCTGTGGCCACATCTTATCTTTTCCATCCTTTGCATCGGAGTCACCTAGTGCAG”, the binding signal was 3220 fluorescence intensity (a.u.). “ATGCCACGCGTACGAGTCCCGTGACGTGCTGGCCCGCTACCGGAGTCACCTAGTGCAG” was tested, and the binding signal was 7140 fluorescence intensity (a.u.). For “TATTATCTCTCGGCAGACCTACGATCTTACGTAGCTTACCCGGAGTCACCTAGTGCAG”, the binding signal was 3550 fluorescence intensity (a.u.).
